Test results taken from paper PMC5666082.
Results are given in words; binding and its absence hold for the method and conditions named. Some entries that bind do so weakly or less than the wild type. Tags and fused reporters may be left off the sequences shown. Blank lines part the entries; values can stand above or below the binder they belong to.

Assays:
[1] = target: T1, GST-Su(Hw) N-terminal domain (aa 1-238) (Drosophila) (UniProt P08970); test: pull-down; GST fusion on Glutathione Sepharose 4B beads in 20 mM Hepes-KOH pH 7.6, 200 mM KCl, 2.5 mM MgCl2, 10% glycerol, 0.05% NP40; blocked with 5% BSA; incubated with 6His-tagged protein for 3 h; washed with 400 mM NaCl, 0.2% NP40; blot with anti-His; both purified
T1 sequence: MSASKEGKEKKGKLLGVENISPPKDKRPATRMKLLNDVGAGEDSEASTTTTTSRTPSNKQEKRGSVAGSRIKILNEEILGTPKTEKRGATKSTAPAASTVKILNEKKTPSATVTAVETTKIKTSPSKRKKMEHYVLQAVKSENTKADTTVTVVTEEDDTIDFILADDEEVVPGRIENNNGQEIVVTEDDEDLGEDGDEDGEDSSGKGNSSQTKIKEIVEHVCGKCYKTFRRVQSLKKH

[2] = target: T2, Su(Hw) C-terminal region, aa 672-892 (yeast two-hybrid fusion) (Drosophila) (UniProt P08970); test: two-hybrid; yeast strain pJ694A, Clontech plasmids; GAL4 activation and DNA-binding domains fused to the N- or C-ends of the test proteins; growth on media without tryptophan, leucine, histidine and adenine compared after 2-3 days at 30°C
T2 sequence: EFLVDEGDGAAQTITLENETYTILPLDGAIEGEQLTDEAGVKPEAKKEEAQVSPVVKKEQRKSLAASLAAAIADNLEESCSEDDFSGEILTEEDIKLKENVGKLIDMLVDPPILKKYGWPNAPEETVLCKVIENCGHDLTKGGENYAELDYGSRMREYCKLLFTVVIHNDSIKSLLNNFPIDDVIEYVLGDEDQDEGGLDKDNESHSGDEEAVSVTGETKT

[3] = target: T3, GST-Mod(mdg4)-67.2 (Drosophila) (UniProt Q86B87); test: pull-down; GST fusion on Glutathione Sepharose 4B beads in 20 mM Hepes-KOH pH 7.6, 200 mM KCl, 2.5 mM MgCl2, 10% glycerol, 0.05% NP40; blocked with 5% BSA; incubated with 6His-tagged protein for 3 h; washed with 400 mM NaCl, 0.2% NP40; blot with anti-His; both purified
T3 sequence: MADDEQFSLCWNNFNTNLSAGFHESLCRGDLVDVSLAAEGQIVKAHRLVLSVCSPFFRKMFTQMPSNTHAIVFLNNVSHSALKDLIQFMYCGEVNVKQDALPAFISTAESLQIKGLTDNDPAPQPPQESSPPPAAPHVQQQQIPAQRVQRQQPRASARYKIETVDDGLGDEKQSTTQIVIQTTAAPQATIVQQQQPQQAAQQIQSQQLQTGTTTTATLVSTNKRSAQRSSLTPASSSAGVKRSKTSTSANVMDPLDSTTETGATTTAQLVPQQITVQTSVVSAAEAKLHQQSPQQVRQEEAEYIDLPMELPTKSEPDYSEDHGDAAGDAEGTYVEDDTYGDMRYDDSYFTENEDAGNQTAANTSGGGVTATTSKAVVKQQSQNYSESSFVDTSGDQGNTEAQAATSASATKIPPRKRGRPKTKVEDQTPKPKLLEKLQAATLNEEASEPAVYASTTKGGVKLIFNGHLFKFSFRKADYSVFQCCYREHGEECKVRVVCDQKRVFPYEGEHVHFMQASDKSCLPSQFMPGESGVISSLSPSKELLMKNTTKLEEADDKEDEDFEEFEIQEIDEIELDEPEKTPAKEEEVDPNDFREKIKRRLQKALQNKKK

- binding [1]: binds
B1: His-fusion Mod(mdg4)-67.2 aa 118-277 (domain or fragment, UniProt Q86B87 118-277)
chain: DNDPAPQPPQESSPPPAAPHVQQQQIPAQRVQRQQPRASARYKIETVDDGLGDEKQSTTQIVIQTTAAPQATIVQQQQPQQAAQQIQSQQLQTGTTTTATLVSTNKRSAQRSSLTPASSSAGVKRSKTSTSANVMDPLDSTTETGATTTAQLVPQQITVQ

- binding [2]: binds
Binder: QEIDEIELDEPEKTPAKEEEVDPNDFREKIKRRLQKALQNKKK (domain or fragment, UniProt Q86B87 568-610) [Mod(mdg4)-67.2 C-terminal region (568-610), Su(Hw)-interacting domain (yeast two-hybrid fusion)]

- binding [3]: binds
B2: His-fusion Su(Hw) MID (716-892 region) (domain or fragment, UniProt P08970 716-892)
chain: AKKEEAQVSPVVKKEQRKSLAASLAAAIADNLEESCSEDDFSGEILTEEDIKLKENVGKLIDMLVDPPILKKYGWPNAPEETVLCKVIENCGHDLTKGGENYAELDYGSRMREYCKLLFTVVIHNDSIKSLLNNFPIDDVIEYVLGDEDQDEGGLDKDNESHSGDEEAVSVTGETKT

- binding [2]: no binding
B3: Mod(mdg4)-67.2 derivative devoid of the C-terminal region (1-568) (yeast two-hybrid fusion) (domain or fragment, UniProt Q86B87 1-568)
chain: MADDEQFSLCWNNFNTNLSAGFHESLCRGDLVDVSLAAEGQIVKAHRLVLSVCSPFFRKMFTQMPSNTHAIVFLNNVSHSALKDLIQFMYCGEVNVKQDALPAFISTAESLQIKGLTDNDPAPQPPQESSPPPAAPHVQQQQIPAQRVQRQQPRASARYKIETVDDGLGDEKQSTTQIVIQTTAAPQATIVQQQQPQQAAQQIQSQQLQTGTTTTATLVSTNKRSAQRSSLTPASSSAGVKRSKTSTSANVMDPLDSTTETGATTTAQLVPQQITVQTSVVSAAEAKLHQQSPQQVRQEEAEYIDLPMELPTKSEPDYSEDHGDAAGDAEGTYVEDDTYGDMRYDDSYFTENEDAGNQTAANTSGGGVTATTSKAVVKQQSQNYSESSFVDTSGDQGNTEAQAATSASATKIPPRKRGRPKTKVEDQTPKPKLLEKLQAATLNEEASEPAVYASTTKGGVKLIFNGHLFKFSFRKADYSVFQCCYREHGEECKVRVVCDQKRVFPYEGEHVHFMQASDKSCLPSQFMPGESGVISSLSPSKELLMKNTTKLEEADDKEDEDFEEFEIQ
